Results taken from publication PMC10201420, “Structural basis for guide RNA selection by the RESC1–RESC2 complex”.
Results are given in words; binding and its absence hold for the method and conditions named. Binding calls can cover weak binding; strength is not graded here. For part of these data: In cells and extracts the contact can be indirect.

Chains of the proteins cited; added tags and fusions are not shown. Lines headed by an entry give the natural chain unless they say otherwise; changes in a name come on top.
UniProt Q586X1: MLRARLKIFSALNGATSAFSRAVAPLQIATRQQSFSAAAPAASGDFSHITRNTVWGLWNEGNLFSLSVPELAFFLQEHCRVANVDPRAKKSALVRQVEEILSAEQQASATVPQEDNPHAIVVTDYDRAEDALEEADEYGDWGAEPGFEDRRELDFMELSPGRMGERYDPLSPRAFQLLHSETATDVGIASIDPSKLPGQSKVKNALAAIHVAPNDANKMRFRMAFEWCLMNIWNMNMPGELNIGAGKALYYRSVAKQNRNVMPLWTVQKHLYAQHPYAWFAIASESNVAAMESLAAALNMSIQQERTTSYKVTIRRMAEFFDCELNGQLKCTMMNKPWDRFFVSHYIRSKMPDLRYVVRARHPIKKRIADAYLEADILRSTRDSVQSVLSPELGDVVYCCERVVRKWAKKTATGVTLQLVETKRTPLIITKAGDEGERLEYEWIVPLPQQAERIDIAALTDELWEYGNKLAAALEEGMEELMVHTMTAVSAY

Columns and labels:
[1] = target: Trypanosoma brucei RESC1 (residues 22-473, without mitochondrial targeting sequence) (Trypanosoma brucei) (UniProt Q57XL7); assay: SEC-MALS; Superdex 200 Increase 10/300 GL; 20 mM HEPES pH 7.5, 50 mM NaCl, 2 mM MgCl2, 1 mM DTT; 2 mg/ml, 50 ul injected; co-expressed, co-purified complex; both purified
[2] = target: Trypanosoma brucei RESC1 (residues 22-473, without mitochondrial targeting sequence) (Trypanosoma brucei) (UniProt Q57XL7); assay: mass photometry; Refeyn OneMP; RESC1-RESC2 at a final concentration of 100 nM; co-expressed, co-purified complex; both purified
[3] = target: Trypanosoma brucei RESC1 (residues 22-473, without mitochondrial targeting sequence) (Trypanosoma brucei) (UniProt Q57XL7); assay: cryo-EM structure; apo RESC1-RESC2 heterodimer, peak fractions of Superdex 200 Increase 3.2/300 in 20 mM HEPES pH 7.5, 50 mM NaCl, 2 mM MgCl2, 0.5 mM TCEP; 3.4 A map; a gRNA-bound map at 4.7 A was also obtained; both purified

Measured: binding

Trypanosoma brucei RESC2 (residues 33-492, without mitochondrial targeting sequence) (from UniProt Q586X1)
binds: all assays above
